Consider 27 compounds from the supplement of paper PMC10735217.

Structures can show the parent of a compound that is named as a salt. The list shows a part of the results. Repeats in this data set agree poorly, so a single value says little.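 Human kidney-derived cells stably carry a construct in which eight TEAD-binding elements drive luciferase, measured by luminescence in a drug-repurposing library screen. A hit is any compound whose signal exceeds the plate mean by more than five robust Z scores.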

The subject of this test is HEK293A TEAD-LUC reporter. Nature of the test: TEAD-luciferase reporter activity (YAP activation), robust Z score vs plate; higher = stronger YAP/TEAD activation. The following applies: 24 h. (In general: Reporter assays use an easily measured gene product as a stand-in for the process of interest.)

With `O=C(NOCCO)c1ccc2cncn2c1Nc1ccc(I)cc1F`, the TEAD-luciferase reporter activity (compound concentration: 200 nM) was inactive: -0.135, the TEAD-luciferase reporter activity (compound concentration: 2 uM) is inactive: -0.584 and the TEAD-luciferase reporter activity (compound concentration: 10 uM) is inactive: -2.28.

Take `CC(C)CN(C[C@H](O)[C@H](Cc1ccccc1)NC(=O)[C@@H](NC(=O)CNCc1cccc(F)c1)C(C)(C)C)S(=O)(=O)c1cccc(N)c1`: the TEAD-luciferase reporter activity was inactive: 0.744 (compound concentration: 200 nM), inactive: 1.26 (compound concentration: 2 uM) and inactive: 0.979 (compound concentration: 10 uM).

As for `O=C(O[C@H]1CN2CCC1CC2)N1CCc2ccccc2[C@@H]1c1ccccc1` [solifenacin succinate, ODT], the TEAD-luciferase reporter activity was inactive: -0.681 (compound concentration: 200 nM), inactive: -0.492 (compound concentration: 2 uM) and inactive: 3.07 (compound concentration: 10 uM).

Take `COCCN1CCC(N(Cc2ccc(-c3ccc(C(F)(F)F)cc3)cc2)C(=O)Cn2c(CCc3cccc(F)c3F)cc(=O)c3cccnc32)CC1`: the TEAD-luciferase reporter activity (compound concentration: 200 nM) is inactive: -0.954, the TEAD-luciferase reporter activity (compound concentration: 2 uM) was inactive: -2.05 and the TEAD-luciferase reporter activity (compound concentration: 10 uM) was inactive: -0.535.

As to `O=C(C1CCCC1)N1Cc2ccccc2CC2(CCCCN2CC2CCNCC2)C1` (centres undefined), the TEAD-luciferase reporter activity by setting is: (compound concentration: 200 nM) inactive: 2.26; (compound concentration: 10 uM) inactive: 2.89.

On to `C=CC[N+]1([C@H]2C[C@H]3[C@@H]4CC[C@H]5C[C@H](OC(C)=O)[C@@H](N6CCCCC6)C[C@]5(C)[C@H]4CC[C@]3(C)[C@H]2OC(=O)CC)CCCCC1` [rapacuronium bromide], for which the TEAD-luciferase reporter activity runs as follows: (compound concentration: 200 nM) inactive: 0.171; (compound concentration: 2 uM) inactive: -1.74; (compound concentration: 10 uM) inactive: 2.17.

On to `O=C(O)COc1ccc(C(=O)c2cccs2)c(Cl)c1Cl` [tienilic acid], for which the TEAD-luciferase reporter activity (compound concentration: 200 nM) was inactive: -0.48, the TEAD-luciferase reporter activity (compound concentration: 2 uM) is inactive: -1.64 and the TEAD-luciferase reporter activity (compound concentration: 10 uM) was inactive: 2.25.

As for `N#CC1CCN(CCc2ccc3c(c2)CCO3)CC1`, the TEAD-luciferase reporter activity (compound concentration: 200 nM) is inactive: 0.429, the TEAD-luciferase reporter activity (compound concentration: 2 uM) was inactive: -1.79 and the TEAD-luciferase reporter activity (compound concentration: 10 uM) is inactive: 2.63.

Turning to `CN1CCC(=C2c3ccccc3Oc3ncccc32)CC1`, the TEAD-luciferase reporter activity reads like this: (compound concentration: 200 nM) inactive: -0.387; (compound concentration: 2 uM) inactive: 1.86; (compound concentration: 10 uM) inactive: -1.07.

Take `O=C(C1CC[C@H](CC1)CNC(=N)N)Oc1ccc(cc1)C(C)(C)C` (centres undefined): the TEAD-luciferase reporter activity runs as follows: (compound concentration: 200 nM) inactive: -0.574; (compound concentration: 2 uM) inactive: -0.65; (compound concentration: 10 uM) inactive: 3.44.

`O=C1c2ccc(O)cc2OCC1c1ccc(O)cc1` (centres undefined): the TEAD-luciferase reporter activity runs as follows: (compound concentration: 200 nM) inactive: 0.0143; (compound concentration: 2 uM) inactive: -0.443; (compound concentration: 10 uM) inactive: -0.688.

With `COc1ccc2c(c1)c(CC(=O)OCC(C(=O)O)c1ccccc1)c(C)n2C(=O)c1ccc(Cl)cc1` (centres undefined) [tropine indometacinate], the TEAD-luciferase reporter activity (compound concentration: 2 uM) is inactive: -0.855.

Regarding `COc1ccc2c(c1)c(CC(=O)OCC(C(=O)O)c1ccccc1)c(C)n2C(=O)c1ccc(Cl)cc1` (centres undefined) [tropine indometacinate, Spofa], the TEAD-luciferase reporter activity runs as follows: (compound concentration: 200 nM) inactive: -0.64; (compound concentration: 10 uM) inactive: 1.39.

As for `O=C1Nc2ccc(Cl)cc2[C@](/C=C/C2CC2)(C(F)(F)F)N1`, the TEAD-luciferase reporter activity reads like this: (compound concentration: 200 nM) inactive: 0.0755; (compound concentration: 2 uM) inactive: -0.33; (compound concentration: 10 uM) inactive: 1.41.

In the case of `CC[C@@H](CC[C@@H](C)[C@H]1CCC2[C@@H]3CC=C4C[C@H](O)CC[C@]4(C)C3CC[C@@]21C)C(C)C` (some centres undefined), the TEAD-luciferase reporter activity by setting is: (compound concentration: 200 nM) inactive: -0.815; (compound concentration: 2 uM) inactive: 0.17; (compound concentration: 10 uM) inactive: 0.461.

For `CCCCCCCCCCCCCCCCCC(=O)NCC(COP(=O)(O)OCC[N+](C)(C)C)OCC` (centres undefined), the TEAD-luciferase reporter activity reads like this: (compound concentration: 200 nM) inactive: -0.931; (compound concentration: 2 uM) inactive: -1.79; (compound concentration: 10 uM) inactive: -2.34.

As for `CC1CCCN1CCCOc1ccc(-n2cc(C(=O)N3CCOCC3)cn2)cc1` (centres undefined), the TEAD-luciferase reporter activity is inactive: -0.691 (compound concentration: 200 nM), inactive: -1.14 (compound concentration: 2 uM) and inactive: -1.23 (compound concentration: 10 uM).

For `CCCN1CCCCC12Cc1ccccc1CN(C(=O)CCCC(=O)O)C2` (centres undefined), the TEAD-luciferase reporter activity is inactive: 1.23 (compound concentration: 200 nM) and inactive: 0.0202 (compound concentration: 10 uM).

With `CCCCc1ccc2[nH]c(NC(=O)OC)nc2c1`, the TEAD-luciferase reporter activity was inactive: 2.81 (compound concentration: 200 nM), active: 11.7 (compound concentration: 2 uM) and active: 16.8 (compound concentration: 10 uM).

Consider `CCOC(=O)c1c(Cn2cncn2)nc2cc(OC)c(OC)cc2c1-c1ccc(OC)c(OC)c1`, for which the TEAD-luciferase reporter activity (compound concentration: 200 nM) is inactive: -0.49, the TEAD-luciferase reporter activity (compound concentration: 2 uM) is inactive: -1.55 and the TEAD-luciferase reporter activity (compound concentration: 10 uM) is inactive: -0.937.

On to `C[C@H]1[C@H](C)CC[C@]2(CO)CC[C@]3(C)C(=CC[C@@H]4[C@@]5(C)CC[C@H](O)C(C)(C)[C@@H]5CC[C@]43C)[C@H]12`, for which the TEAD-luciferase reporter activity is inactive: 1.53 (compound concentration: 200 nM), inactive: -1.92 (compound concentration: 2 uM) and inactive: 1.4 (compound concentration: 10 uM).

Take `CC(C)N1CCN=C1CN1CCCCSc2ccc(Cl)cc21` [Dazolicine]: the TEAD-luciferase reporter activity is inactive: -0.48 (compound concentration: 200 nM), inactive: -2.03 (compound concentration: 2 uM) and inactive: 1.81 (compound concentration: 10 uM).

Consider `Cc1ccccc1N(C)C1CN(Cc2ccccc2)C1`, for which the TEAD-luciferase reporter activity by setting is: (compound concentration: 200 nM) active: 9.68; (compound concentration: 10 uM) inactive: 3.91.

As to `N=C(N)NCCC(=O)O`, the TEAD-luciferase reporter activity (compound concentration: 200 nM) was inactive: -1.26 and the TEAD-luciferase reporter activity (compound concentration: 10 uM) was inactive: 1.29.

As for `COc1ccc(CC(C)(C)NC[C@H](O)c2cc(O)cc3c2OCC(=O)N3)cc1` [Olodaterol HCl], the TEAD-luciferase reporter activity reads like this: (compound concentration: 200 nM) inactive: -0.648; (compound concentration: 2 uM) inactive: -0.189; (compound concentration: 10 uM) inactive: 2.48.

In the case of `CCOC(=O)C1CCN(C(=O)CCS(=O)(=O)c2ccc3ccccc3c2)CC1`, the TEAD-luciferase reporter activity is inactive: -2.61 (compound concentration: 200 nM), inactive: -1.74 (compound concentration: 2 uM) and inactive: 2.63 (compound concentration: 10 uM).

`CO[C@H](CN(CC(C)C)S(=O)(=O)c1ccc2occc2c1)[C@H](Cc1ccccc1)NC(=O)OC(C)(C)C`: the TEAD-luciferase reporter activity (compound concentration: 200 nM) was inactive: -1.08, the TEAD-luciferase reporter activity (compound concentration: 2 uM) was inactive: -0.304 and the TEAD-luciferase reporter activity (compound concentration: 10 uM) is inactive: 2.97.
